Measurements: article PMC11626796
Results are given in words; binding and its absence hold for the method and conditions named. Some binding calls cover weakened binding; strength is not graded here.

Chains of the proteins cited; added tags and fusions are not shown. Lines headed by an entry give the natural chain unless they say otherwise; changes in a name come on top. A line that says so, or that is headed by a name, gives the form on record, which may keep a tag or linker. Residues count along the entry.
UniProt P51884, residues 19-338: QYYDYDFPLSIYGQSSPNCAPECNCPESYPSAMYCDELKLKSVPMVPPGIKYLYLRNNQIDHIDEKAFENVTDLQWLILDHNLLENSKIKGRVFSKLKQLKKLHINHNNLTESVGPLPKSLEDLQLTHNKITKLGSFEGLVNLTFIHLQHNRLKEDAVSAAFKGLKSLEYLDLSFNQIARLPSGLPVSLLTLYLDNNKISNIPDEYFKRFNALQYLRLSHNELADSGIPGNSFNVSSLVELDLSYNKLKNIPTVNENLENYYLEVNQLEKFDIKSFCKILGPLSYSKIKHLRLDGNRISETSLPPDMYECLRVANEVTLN
UniProt P21793, residues 31-360: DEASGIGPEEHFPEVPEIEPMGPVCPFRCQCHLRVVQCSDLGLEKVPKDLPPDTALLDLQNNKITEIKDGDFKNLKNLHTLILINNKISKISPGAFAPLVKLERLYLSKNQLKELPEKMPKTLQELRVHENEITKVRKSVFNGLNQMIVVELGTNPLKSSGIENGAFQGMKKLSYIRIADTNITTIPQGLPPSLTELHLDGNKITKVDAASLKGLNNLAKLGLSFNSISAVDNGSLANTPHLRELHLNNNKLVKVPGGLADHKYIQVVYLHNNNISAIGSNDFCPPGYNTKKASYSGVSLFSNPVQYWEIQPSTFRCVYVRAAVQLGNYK
UniProt P02454: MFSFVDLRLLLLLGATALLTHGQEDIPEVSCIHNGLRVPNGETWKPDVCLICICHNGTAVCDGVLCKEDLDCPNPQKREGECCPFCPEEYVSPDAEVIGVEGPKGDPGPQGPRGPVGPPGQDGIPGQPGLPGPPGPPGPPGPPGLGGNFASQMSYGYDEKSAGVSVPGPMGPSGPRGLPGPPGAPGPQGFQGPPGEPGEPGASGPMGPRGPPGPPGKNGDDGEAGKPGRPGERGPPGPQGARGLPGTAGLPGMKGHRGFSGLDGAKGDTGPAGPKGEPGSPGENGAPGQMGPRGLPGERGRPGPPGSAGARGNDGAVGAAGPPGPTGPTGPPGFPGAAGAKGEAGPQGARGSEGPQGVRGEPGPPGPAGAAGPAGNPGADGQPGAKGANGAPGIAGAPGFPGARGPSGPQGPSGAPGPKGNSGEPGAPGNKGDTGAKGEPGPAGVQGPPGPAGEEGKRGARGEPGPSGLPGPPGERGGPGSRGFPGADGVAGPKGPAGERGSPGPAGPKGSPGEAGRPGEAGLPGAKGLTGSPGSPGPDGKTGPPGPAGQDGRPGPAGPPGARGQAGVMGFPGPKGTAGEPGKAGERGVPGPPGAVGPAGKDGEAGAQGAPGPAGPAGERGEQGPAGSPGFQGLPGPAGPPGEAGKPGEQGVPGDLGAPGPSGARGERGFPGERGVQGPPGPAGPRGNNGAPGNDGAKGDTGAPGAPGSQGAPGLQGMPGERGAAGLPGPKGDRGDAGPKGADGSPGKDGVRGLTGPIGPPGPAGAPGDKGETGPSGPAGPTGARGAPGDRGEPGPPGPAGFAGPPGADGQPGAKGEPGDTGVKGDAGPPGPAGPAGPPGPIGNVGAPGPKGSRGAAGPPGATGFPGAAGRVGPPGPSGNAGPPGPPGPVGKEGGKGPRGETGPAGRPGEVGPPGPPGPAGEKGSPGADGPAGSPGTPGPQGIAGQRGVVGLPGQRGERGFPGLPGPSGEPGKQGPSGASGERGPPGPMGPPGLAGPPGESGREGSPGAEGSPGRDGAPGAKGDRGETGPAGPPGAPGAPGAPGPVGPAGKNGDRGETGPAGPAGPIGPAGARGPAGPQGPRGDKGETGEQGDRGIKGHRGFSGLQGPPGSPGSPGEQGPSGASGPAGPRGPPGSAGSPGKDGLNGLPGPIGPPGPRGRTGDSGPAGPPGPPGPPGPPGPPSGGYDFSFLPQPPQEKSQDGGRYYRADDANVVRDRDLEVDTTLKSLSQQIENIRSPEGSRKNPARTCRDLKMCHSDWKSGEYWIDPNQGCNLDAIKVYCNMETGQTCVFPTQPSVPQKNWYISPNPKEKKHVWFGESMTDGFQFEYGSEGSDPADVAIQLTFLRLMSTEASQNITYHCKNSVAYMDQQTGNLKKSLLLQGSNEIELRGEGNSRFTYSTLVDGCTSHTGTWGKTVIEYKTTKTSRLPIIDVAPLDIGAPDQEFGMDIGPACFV
UniProt P02466: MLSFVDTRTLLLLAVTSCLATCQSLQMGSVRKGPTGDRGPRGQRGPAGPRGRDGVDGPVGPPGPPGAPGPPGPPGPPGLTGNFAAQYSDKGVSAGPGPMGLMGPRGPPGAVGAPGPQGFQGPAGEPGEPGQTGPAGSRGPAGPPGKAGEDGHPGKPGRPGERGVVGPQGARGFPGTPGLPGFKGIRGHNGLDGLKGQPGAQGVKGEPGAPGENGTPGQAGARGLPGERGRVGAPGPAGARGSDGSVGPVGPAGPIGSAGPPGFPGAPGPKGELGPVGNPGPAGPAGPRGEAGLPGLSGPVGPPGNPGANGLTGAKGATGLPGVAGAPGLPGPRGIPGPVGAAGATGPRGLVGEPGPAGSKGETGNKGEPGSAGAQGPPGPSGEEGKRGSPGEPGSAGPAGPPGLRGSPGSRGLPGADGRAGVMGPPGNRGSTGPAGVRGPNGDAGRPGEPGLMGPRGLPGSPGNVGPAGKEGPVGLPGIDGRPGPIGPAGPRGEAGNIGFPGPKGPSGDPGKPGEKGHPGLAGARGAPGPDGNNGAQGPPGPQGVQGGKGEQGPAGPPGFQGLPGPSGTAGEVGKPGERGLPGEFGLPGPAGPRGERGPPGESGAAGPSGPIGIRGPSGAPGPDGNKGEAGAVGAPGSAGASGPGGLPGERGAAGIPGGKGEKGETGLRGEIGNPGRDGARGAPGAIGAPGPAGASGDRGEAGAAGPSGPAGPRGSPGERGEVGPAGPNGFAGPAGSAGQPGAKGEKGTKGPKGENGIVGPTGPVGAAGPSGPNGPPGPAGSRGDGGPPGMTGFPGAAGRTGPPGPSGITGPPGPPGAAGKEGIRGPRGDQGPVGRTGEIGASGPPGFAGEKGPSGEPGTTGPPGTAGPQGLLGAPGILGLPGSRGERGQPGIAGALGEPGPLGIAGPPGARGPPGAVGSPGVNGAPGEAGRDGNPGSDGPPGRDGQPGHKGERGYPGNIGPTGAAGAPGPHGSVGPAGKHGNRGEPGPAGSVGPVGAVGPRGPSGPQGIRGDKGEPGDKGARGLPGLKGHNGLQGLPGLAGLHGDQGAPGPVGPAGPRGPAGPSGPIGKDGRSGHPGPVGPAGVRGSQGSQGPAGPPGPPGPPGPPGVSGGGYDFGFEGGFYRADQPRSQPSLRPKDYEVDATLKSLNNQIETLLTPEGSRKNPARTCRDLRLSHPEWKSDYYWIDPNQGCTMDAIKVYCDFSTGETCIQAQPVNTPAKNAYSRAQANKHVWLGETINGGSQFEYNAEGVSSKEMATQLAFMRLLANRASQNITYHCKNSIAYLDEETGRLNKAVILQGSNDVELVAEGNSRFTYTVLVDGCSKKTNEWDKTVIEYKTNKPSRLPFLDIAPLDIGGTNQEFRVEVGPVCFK
Recombinant human versican isoform V3 (P13611-4, form named): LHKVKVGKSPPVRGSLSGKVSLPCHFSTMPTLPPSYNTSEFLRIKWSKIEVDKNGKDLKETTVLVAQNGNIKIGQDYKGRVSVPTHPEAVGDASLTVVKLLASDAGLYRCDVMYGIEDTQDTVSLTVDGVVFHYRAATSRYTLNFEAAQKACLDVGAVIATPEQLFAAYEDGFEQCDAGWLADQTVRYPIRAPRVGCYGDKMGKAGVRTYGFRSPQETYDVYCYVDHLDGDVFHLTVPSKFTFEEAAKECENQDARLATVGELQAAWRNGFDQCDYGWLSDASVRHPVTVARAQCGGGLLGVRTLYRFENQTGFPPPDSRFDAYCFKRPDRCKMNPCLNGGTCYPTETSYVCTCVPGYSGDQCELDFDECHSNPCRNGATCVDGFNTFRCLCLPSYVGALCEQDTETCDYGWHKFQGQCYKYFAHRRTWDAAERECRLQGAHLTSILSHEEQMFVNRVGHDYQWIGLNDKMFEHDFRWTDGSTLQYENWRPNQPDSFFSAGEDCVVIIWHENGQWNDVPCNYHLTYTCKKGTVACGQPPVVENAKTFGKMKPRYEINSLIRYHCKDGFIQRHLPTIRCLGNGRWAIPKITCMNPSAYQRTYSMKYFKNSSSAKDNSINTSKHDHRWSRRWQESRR

Key:
[1] = target: Recombinant human lumican (human) (UniProt P51884); experiment: ELISA; solid-phase binding assay: proteoglycan or versican domain coated on a 96-well plate (0.25 ug/ml; 0.05-1 ug/ml in Fig. 2A) at 4 C overnight, blocked with 3% BSA in TTBS or casein; rat tail type I collagen 0.1-5 ug/ml in 1% BSA/PBS overnight at RT; detected with biotin-conjugated anti-collagen I antibody, streptavidin-HRP and TMB; Kd from Scatchard plot; both purified
[2] = target: Decorin isolated from bovine cartilage (bovine) (UniProt P21793); experiment: as above
[3] = target: Rat tail type I telo-collagen (rat) (UniProt P02454+P02466); experiment: ELISA; solid-phase binding assay: CLC II peptides (or full-length collagen as positive control) coated on plates, blocked with casein; 10 ug/ml recombinant V3 or G3 incubated overnight; detected with anti-His antibody (HRP) and TMB; normalised to full-length collagen; both purified

binding [1]	binding [2]	binding [3]	Substance
binds	binds		Rat tail type I telo-collagen (from UniProt P02454 152-1207; P02466 86-1125) (complex)
		binds	Recombinant human versican isoform V3 (from UniProt P13611-4 21-655)
